This note sets out measurements from publication PMC11519604, “TOX2 nuclear-cytosol translocation is linked to leukemogenesis of acute T-cell leukemia by repressing TIM3 transcription” (Cell Death and Differentiation, 2024).

Amino acid sequences for entries named in this document (tags omitted).
UniProt O15379: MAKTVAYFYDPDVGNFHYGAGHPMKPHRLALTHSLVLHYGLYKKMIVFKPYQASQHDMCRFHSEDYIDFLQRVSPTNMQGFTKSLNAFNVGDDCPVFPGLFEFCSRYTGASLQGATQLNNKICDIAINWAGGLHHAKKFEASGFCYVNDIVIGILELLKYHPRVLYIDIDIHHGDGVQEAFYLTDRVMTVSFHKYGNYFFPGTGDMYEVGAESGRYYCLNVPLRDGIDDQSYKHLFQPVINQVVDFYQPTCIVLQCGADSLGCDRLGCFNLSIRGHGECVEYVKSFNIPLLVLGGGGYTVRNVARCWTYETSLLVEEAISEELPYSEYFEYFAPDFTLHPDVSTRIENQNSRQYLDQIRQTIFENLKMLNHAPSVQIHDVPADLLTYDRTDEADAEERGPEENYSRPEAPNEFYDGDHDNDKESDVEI

Results are given in words; binding and its absence hold for the method and conditions named. For part of these data: Binding seen in cells or lysates may run through a third protein. Some binding calls cover weakened binding; strength is not graded here. For part of these data: Sequences can lack the tags named with a protein.

The target in assay [1] is T1, TOX (thymocyte selection-associated high mobility group box protein), endogenous (human (endogenous in Jurkat, T2 and normal T cells)) (UniProt O94900).
T1 sequence: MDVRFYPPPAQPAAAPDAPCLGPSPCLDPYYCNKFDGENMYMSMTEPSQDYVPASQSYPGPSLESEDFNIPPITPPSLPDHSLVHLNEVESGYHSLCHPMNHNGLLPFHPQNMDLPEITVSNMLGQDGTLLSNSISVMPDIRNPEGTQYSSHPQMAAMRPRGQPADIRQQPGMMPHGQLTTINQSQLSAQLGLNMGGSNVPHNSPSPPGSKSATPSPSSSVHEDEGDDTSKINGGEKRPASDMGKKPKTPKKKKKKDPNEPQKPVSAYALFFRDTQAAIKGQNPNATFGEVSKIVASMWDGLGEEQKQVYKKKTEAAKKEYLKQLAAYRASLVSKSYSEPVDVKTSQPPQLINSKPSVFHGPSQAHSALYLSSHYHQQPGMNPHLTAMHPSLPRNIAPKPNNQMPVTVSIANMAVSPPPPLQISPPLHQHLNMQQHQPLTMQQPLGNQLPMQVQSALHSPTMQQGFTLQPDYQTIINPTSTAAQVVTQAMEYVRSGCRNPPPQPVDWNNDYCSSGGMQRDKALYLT
Nature of the assay: co-IP; nuclear protein of Jurkat cells, immunoprecipitation with anti-TOX antibody, immunoblot.

Assay [2] concerns the target T2, TOX-Flag (full-length TOX) (UniProt O94900).
T2 sequence: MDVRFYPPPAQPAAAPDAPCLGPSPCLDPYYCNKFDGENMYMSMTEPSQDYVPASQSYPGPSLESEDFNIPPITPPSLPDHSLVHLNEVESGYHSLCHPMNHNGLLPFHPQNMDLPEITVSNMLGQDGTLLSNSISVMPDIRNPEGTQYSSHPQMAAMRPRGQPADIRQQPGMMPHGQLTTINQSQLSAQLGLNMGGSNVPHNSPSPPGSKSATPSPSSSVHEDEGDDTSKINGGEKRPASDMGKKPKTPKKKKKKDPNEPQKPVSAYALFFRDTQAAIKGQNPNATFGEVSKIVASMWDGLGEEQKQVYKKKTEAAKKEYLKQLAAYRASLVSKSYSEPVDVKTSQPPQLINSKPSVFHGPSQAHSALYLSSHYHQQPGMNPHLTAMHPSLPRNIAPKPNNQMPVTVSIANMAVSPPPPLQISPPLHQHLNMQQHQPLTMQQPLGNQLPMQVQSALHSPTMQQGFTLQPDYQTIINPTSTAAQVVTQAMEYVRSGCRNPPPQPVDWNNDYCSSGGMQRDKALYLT
Nature of the assay: co-IP; exogenous co-IP in HEK293T cells co-transfected with full-length TOX, TOX-Flag or TOX2-HA and truncated TOX or TOX2 plasmids; Co-IP kit lysis buffer, antibody overnight at 4 °C, protein A/G beads.

Assay [3] deals with T1, TOX (thymocyte selection-associated high mobility group box protein), endogenous (human (endogenous in Jurkat, T2 and normal T cells)). Kind of assay: native gel or EMSA; nuclear protein, Native-page 5% G-250 Sample Additive, SDS-free Tris-Gly gels at 4 °C, immunoblot for TOX and TOX2.

As to “HDAC3, endogenous (from UniProt O15379 1-428) (enzyme)”, the binding entry in assay [1] is reported as “binds”.

B1: TOX(C)-His (257–526) (domain or fragment, UniProt O94900 257-526)
chain: DPNEPQKPVSAYALFFRDTQAAIKGQNPNATFGEVSKIVASMWDGLGEEQKQVYKKKTEAAKKEYLKQLAAYRASLVSKSYSEPVDVKTSQPPQLINSKPSVFHGPSQAHSALYLSSHYHQQPGMNPHLTAMHPSLPRNIAPKPNNQMPVTVSIANMAVSPPPPLQISPPLHQHLNMQQHQPLTMQQPLGNQLPMQVQSALHSPTMQQGFTLQPDYQTIINPTSTAAQVVTQAMEYVRSGCRNPPPQPVDWNNDYCSSGGMQRDKALYLT
Turning to B1, the binding result in assay [2] was “binds”.

B2: TOX2, endogenous (protein, UniProt Q96NM4 1-488)
chain: MQQTRTEAVAGAFSRCLGFCGMRLGLLLLARHWCIAGVFPQKFDGDSAYVGMSDGNPELLSTSQTYNGQSENNEDYEIPPITPPNLPEPSLLHLGDHEASYHSLCHGLTPNGLLPAYSYQAMDLPAIMVSNMLAQDSHLLSGQLPTIQEMVHSEVAAYDSGRPGPLLGRPAMLASHMSALSQSQLISQMGIRSSIAHSSPSPPGSKSATPSPSSSTQEEESEVHFKISGEKRPSADPGKKAKNPKKKKKKDPNEPQKPVSAYALFFRDTQAAIKGQNPSATFGDVSKIVASMWDSLGEEQKQSSPDQGETKSTQANPPAKMLPPKQPMYAMPGLASFLTPSDLQAFRSGASPASLARTLGSKSLLPGLSASPPPPPSFPLSPTLHQQLSLPPHAQGALLSPPVSMSPAPQPPVLPTPMALQVQLAMSPSPPGPQDFPHISEFPSSSGSCSPGPSNPTSSGDWDSSYPSGECGISTCSLLPRDKSLYLT
For B2, the binding result in assay [3] and in assay [1] was “binds” throughout.

B3: TOX(N)-His (1–360) (domain or fragment, UniProt O94900 1-360)
chain: MDVRFYPPPAQPAAAPDAPCLGPSPCLDPYYCNKFDGENMYMSMTEPSQDYVPASQSYPGPSLESEDFNIPPITPPSLPDHSLVHLNEVESGYHSLCHPMNHNGLLPFHPQNMDLPEITVSNMLGQDGTLLSNSISVMPDIRNPEGTQYSSHPQMAAMRPRGQPADIRQQPGMMPHGQLTTINQSQLSAQLGLNMGGSNVPHNSPSPPGSKSATPSPSSSVHEDEGDDTSKINGGEKRPASDMGKKPKTPKKKKKKDPNEPQKPVSAYALFFRDTQAAIKGQNPNATFGEVSKIVASMWDGLGEEQKQVYKKKTEAAKKEYLKQLAAYRASLVSKSYSEPVDVKTSQPPQLINSKPSVFH
Regarding B3, the binding result in assay [2] is recorded as “binds”.

B4: TOX(C2)-Myc (361–526) (domain or fragment, UniProt O94900 361-526)
chain: GPSQAHSALYLSSHYHQQPGMNPHLTAMHPSLPRNIAPKPNNQMPVTVSIANMAVSPPPPLQISPPLHQHLNMQQHQPLTMQQPLGNQLPMQVQSALHSPTMQQGFTLQPDYQTIINPTSTAAQVVTQAMEYVRSGCRNPPPQPVDWNNDYCSSGGMQRDKALYLT
For the molecule B4, the binding entry in assay [2] was “no binding”.
